# Cleaved PARP after 72 h of treatment

From a melanoma drug combination screen (doi:10.1371/journal.pone.0140310); values rounded.

First drug in all entries: vincristine, 0.0005 µM, CC[C@]1(O)C[C@H]2CN(CCc3c([nH]c4ccccc34)[C@@](C(=O)OC)(c3cc4c(cc3OC)N(C=O)[C@H]3[C@@](O)(C(=O)OC)[C@H](OC(C)=O)[C@]5(CC)C=CCN6CC[C@]43[C@@H]65)C2)C1

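The test systems are human melanoma cell lines, treated with a pair of drugs for 72 h and then stained and imaged. The read-out is the fraction of cleaved-PARP-positive nuclei, in % of that fraction in the DMSO control; 200 means twice the control level of this apoptosis marker. Every drug was used at one fixed concentration, the higher of two screened. The file gives one value for each pair and line, without errors, so small differences may be noise. The marker varies much from line to line, for technical or biological reasons.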
This is part of the screen, not chosen by result.
An entry leaves out what has no value listed here.
A dash means that no value is listed here.

| # | Partner | IST-MEL1 | WM1745 | RPMI-7951 | A101D | SK-MEL-5 | 501mel |
|---|---|---|---|---|---|---|---|
| 1 | C[C@@H]1CCN(C(=O)CC#N)C[C@@H]1N(C)c1ncnc2[nH]ccc12 at 5 µM | 20.5 | 379 | 88.5 | 217 | 316 | - |
| 2 | CC(C)C[C@H](NC(=O)[C@H](Cc1ccccc1)NC(=O)c1cnccn1)B(O)O at 0.005 µM | 666 | 362 | 1250 | 871 | 2000 | - |
| 3 | Cc1cn(-c2cc(NC(=O)c3ccc(C)c(Nc4nccc(-c5cccnc5)n4)c3)cc(C(F)(F)F)c2)cn1 at 1 µM | 80.6 | 110 | 348 | 169 | 353 | - |
| 4 | CCCCCCCCCCCCCCCCCCOP(=O)([O-])OC1CC[N+](C)(C)CC1 at 2 µM | 76.3 | 108 | 850 | 105 | 36.2 | - |
| 5 | C[C@]12O[C@H](C[C@]1(O)CO)n1c3ccccc3c3c4c(c5c6ccccc6n2c5c31)CNC4=O at 0.02 µM | 224 | 105 | 165 | 216 | 1000 | - |
| 6 | Cn1cnc2c(F)c(Nc3ccc(Br)cc3Cl)c(C(=O)NOCCO)cc21 at 0.075 µM | 258 | 108 | 25.9 | 101 | 95.9 | - |
| 7 | C[C@@H](Oc1cc(-c2cnn(C3CCNCC3)c2)cnc1N)c1c(Cl)ccc(F)c1Cl at 1 µM | 108 | 177 | 29.1 | 62.8 | 180 | - |
| 8 | NC(=O)c1ccc(N(C(N)=O)c2c(F)cccc2F)nc1-c1ccc(F)cc1F at 2 µM | 128 | 207 | 250 | 178 | 88.2 | - |
| 9 | COc1cc(Nc2ncc(F)c(Nc3ccc4c(n3)NC(=O)C(C)(C)O4)n2)cc(OC)c1OC at 2 µM | 197 | 292 | 1260 | 1110 | 548 | - |
| 10 | CN(c1ncccc1CNc1nc(Nc2ccc3c(c2)CC(=O)N3)ncc1C(F)(F)F)S(C)(=O)=O at 0.4 µM | 80.5 | 137 | 440 | 101 | 127 | - |
| 11 | Nc1nc(F)nc2c1ncn2[C@@H]1O[C@H](CO)[C@@H](O)[C@@H]1O at 1 µM | 363 | 101 | 164 | 283 | 2080 | - |
| 12 | Oc1nc(-c2ccc(C(F)(F)F)cc2)nc2c1CSCC2 at 10 µM | 45.7 | - | 224 | 91.7 | 61.0 | 100 |
| 13 | Cc1nc(Nc2ncc(C(=O)Nc3c(C)cccc3Cl)s2)cc(N2CCN(CCO)CC2)n1 at 0.02 µM | 60.2 | 230 | 398 | 273 | 264 | - |
| 14 | O=S(=O)(c1ccccc1)N(CC(F)(F)F)c1ccc(C(O)(C(F)(F)F)C(F)(F)F)cc1 at 7 µM | 47.0 | - | 330 | 205 | 182 | 270 |
| 15 | CS(=O)(=O)CCNCc1ccc(-c2ccc3ncnc(Nc4ccc(OCc5cccc(F)c5)c(Cl)c4)c3c2)o1 at 4 µM | 81.4 | 246 | 343 | 219 | 2500 | - |
| 16 | NCC(=O)Nc1ccc(-n2nc(C(F)(F)F)cc2-c2ccc3c(ccc4ccccc43)c2)cc1 at 5 µM | 454 | 76.9 | 38.8 | 313 | 202 | - |
| 17 | C/C(O)=C(\C#N)C(=O)Nc1cc(Br)ccc1Br at 10 µM | 139 | - | 511 | 285 | 650 | 154 |
| 18 | O=C(O)c1ccc(-c2c[nH]c3ncc(-c4ccccc4)cc23)cc1C1CCCC1 at 0.8 µM | 659 | 69.4 | 98.7 | 80.7 | 195 | - |
| 19 | Nc1cccc2c1CN(C1CCC(=O)NC1=O)C2=O (centres undefined) at 5 µM | 78.5 | 125 | 387 | 86.9 | 62.4 | - |
| 20 | O=c1cc(-c2cccc3c2Sc2ccccc2S3)oc(N2CCOCC2)c1 at 5 µM | 129 | - | 346 | 713 | 312 | 59.1 |
| 21 | CS(=O)(=O)c1ccc(C(=O)Nc2ccc(Cl)c(-c3ccccn3)c2)c(Cl)c1 at 5 µM | 88.7 | 138 | 153 | 84.3 | 144 | - |
| 22 | COc1cc2ncnc(Nc3ccc(Oc4ccccc4)cc3)c2cc1OC at 10 µM | 241 | - | 620 | 483 | 133 | 114 |
| 23 | N#Cc1c(O)c2c(-c3ccc(-c4ccccc4O)cc3)csc2[nH]c1=O at 10 µM | 91.7 | - | 964 | 158 | 680 | 267 |
| 24 | CNC(=O)c1cc(Oc2ccc(NC(=O)Nc3ccc(Cl)c(C(F)(F)F)c3)cc2)ccn1 at 2 µM | 263 | 158 | 812 | 174 | 143 | - |
| 25 | C=CCNC1=C2C[C@@H](C)C[C@H](OC)[C@H](O)[C@@H](C)/C=C(\C)[C@H](OC(N)=O)[C@@H](OC)/C=C\C=C(/C)C(=O)NC(=CC1=O)C2=O at 0.01 µM | 47.5 | 159 | 340 | 109 | 59.3 | - |

The last 2 entries again:

{"partner": "CNC(=O)c1cc(Oc2ccc(NC(=O)Nc3ccc(Cl)c(C(F)(F)F)c3)cc2)ccn1 at 2 µM", "IST-MEL1": 263, "WM1745": 158, "RPMI-7951": 812, "A101D": 174, "SK-MEL-5": 143}
{"partner": "C=CCNC1=C2C[C@@H](C)C[C@H](OC)[C@H](O)[C@@H](C)/C=C(\\C)[C@H](OC(N)=O)[C@@H](OC)/C=C\\C=C(/C)C(=O)NC(=CC1=O)C2=O at 0.01 µM", "IST-MEL1": 47.5, "WM1745": 159, "RPMI-7951": 340, "A101D": 109, "SK-MEL-5": 59.3}